Where two headings read alike, the source gives them in different places. No constants are given. Whether binding was seen depends on the method and setting. Binding seen in cells or lysates may run through a third protein. Binding can be weak; no strength is given.
How the values were obtained:
[1] = target: T1, Upf1 (rat (endogenous in sympathetic neurons of Sprague Dawley rats and in PC12 cells)); experiment: co-IP
T1 sequence: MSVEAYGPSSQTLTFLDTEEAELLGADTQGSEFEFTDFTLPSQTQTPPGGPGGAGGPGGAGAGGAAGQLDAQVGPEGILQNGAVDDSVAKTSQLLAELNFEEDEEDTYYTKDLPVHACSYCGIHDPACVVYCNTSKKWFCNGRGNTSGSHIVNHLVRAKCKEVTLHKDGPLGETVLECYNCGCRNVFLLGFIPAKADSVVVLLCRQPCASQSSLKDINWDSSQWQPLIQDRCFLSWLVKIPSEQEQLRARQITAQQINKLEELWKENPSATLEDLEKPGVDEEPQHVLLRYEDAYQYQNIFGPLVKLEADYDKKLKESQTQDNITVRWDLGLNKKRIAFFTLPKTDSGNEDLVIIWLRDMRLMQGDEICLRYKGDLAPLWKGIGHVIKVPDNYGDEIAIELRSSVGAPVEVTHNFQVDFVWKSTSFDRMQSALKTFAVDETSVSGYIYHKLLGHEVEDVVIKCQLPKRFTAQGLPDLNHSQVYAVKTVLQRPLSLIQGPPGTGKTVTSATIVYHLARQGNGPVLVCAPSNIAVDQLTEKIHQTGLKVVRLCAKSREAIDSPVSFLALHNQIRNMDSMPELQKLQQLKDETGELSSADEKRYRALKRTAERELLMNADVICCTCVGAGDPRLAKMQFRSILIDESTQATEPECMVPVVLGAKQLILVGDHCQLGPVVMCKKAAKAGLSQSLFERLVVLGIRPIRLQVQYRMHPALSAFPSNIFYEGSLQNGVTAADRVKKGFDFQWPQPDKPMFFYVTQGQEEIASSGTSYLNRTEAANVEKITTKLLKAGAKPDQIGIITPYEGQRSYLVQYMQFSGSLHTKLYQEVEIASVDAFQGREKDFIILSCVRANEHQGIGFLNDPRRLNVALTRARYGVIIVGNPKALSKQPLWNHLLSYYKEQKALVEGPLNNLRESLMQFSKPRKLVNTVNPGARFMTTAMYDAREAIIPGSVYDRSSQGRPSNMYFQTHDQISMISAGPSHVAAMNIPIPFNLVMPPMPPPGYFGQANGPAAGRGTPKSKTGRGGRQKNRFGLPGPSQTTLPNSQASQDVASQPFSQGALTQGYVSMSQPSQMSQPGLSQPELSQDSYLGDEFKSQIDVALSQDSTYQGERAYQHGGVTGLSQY

[2] = target: T1, Upf1 (rat (endogenous in sympathetic neurons of Sprague Dawley rats and in PC12 cells)); experiment: co-IP; remark: listed apart in the source

- binding [1]: binds
- binding [2]: binds
Substance: PolyA-binding protein cytoplasmic 4
